PubChem BioAssay AID1259425, University of Nebraska Medical Center | 2018
Here is a random part of about 14,000 reagents tested. Further read-outs or replicates are left out here. Reagent sequences are not shown. The record does not give: the time to read-out.

- Test: 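Find knockdowns that reproduce the gene expression pattern seen when KSR1 is lost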 (primary screen)
- Cell system: HCT116 human colon cancer cells
- Reagent: siRNA pool against human genes, 50 nM siRNA
- Measurement: 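mRNA of six signature genes measured together by branched-DNA assay after 50 nM siRNA pool, blank removed, divided by geometric mean of two housekeeping genes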
- Scale: BNIP3L mRNA: higher = more BNIP3L transcript after knockdown

With knock-down of ETHE1, the record shows BNIP3L mRNA, set 1 = 0.0716.
Silencing of PEF1 gave: BNIP3L mRNA, set 1 = 0.159.
For SAXO6 the deposit lists BNIP3L mRNA, set 1 = 0.141.
For RTL9, the values are BNIP3L mRNA, set 1 = 0.0518.
After knock-down of MIXL1 the results were BNIP3L mRNA, set 1 = 0.118.
TMED9 gave BNIP3L mRNA, set 1 = 0.127.
After knock-down of NUDT21, the record shows BNIP3L mRNA, set 1 = 0.133.
Against RAB18, the values are BNIP3L mRNA, set 1 = 0.116.
Knock-down of RAN resulted in: BNIP3L mRNA, set 1 = 0.0629.
CX3CR1 gave BNIP3L mRNA, set 1 = 0.23.

2 consecutive records from above:
RAB18 — BNIP3L mRNA, set 1 = 0.116
RAN — BNIP3L mRNA, set 1 = 0.0629

Further results:
Silencing of H1-6 came out at: BNIP3L mRNA, set 1 = 0.273.
Depletion of IDE came out at: BNIP3L mRNA, set 1 = 0.0989.
With knock-down of NUP107, the record shows BNIP3L mRNA, set 1 = 0.128.
Against ELK3 the deposit lists BNIP3L mRNA, set 1 = 0.177.
SHC2 gave BNIP3L mRNA, set 1 = 0.0574.
For CFAP68, the entry reads BNIP3L mRNA, set 1 = 0.118.
Silencing of GBP2 came out at: BNIP3L mRNA, set 1 = 0.0496.
Against HOOK2, the values are BNIP3L mRNA, set 1 = 0.0416.
Against RPS9 the deposit lists BNIP3L mRNA, set 1 = 0.0601.
